Experiments:
[1] = tested on: heart of hibernating ground squirrels; experiment: 13C NMR of heart metabolites after injection of 13C-BHB or 13C-glucose in hibernating ground squirrels; details: IP 1 ml of 1 M
[2] = tested on: brain of hibernating ground squirrels; experiment: 13C NMR of brain extracts after injection of 13C-D-BHB or 13C-glucose in hibernating ground squirrels; assay type: in vivo, ground squirrel; details: 1 ml of 1 M injected

| Compound | lactate in heart after injection [1] | utilization and incorporation into TCA cycle metabolites in heart [1] | generation of lactate in brain [2] | substrate quality in brain relative to glucose ([2]; high-field NMR of brain extracts) |
| --- | --- | --- | --- | --- |
| OC[C@H]1OC(O)[C@H](O)[C@@H](O)[C@@H]1O (some centres unmarked) [^13C-glucose, [1-^13C] glucose] | very large spike in lactate | not utilized as efficiently as BHB |  |  |
| C[C@@H](O)CC(=O)O [D-BHB, D-beta-hydroxybutyrate] |  | metabolic intermediates derived from the TCA cycle were produced at low body temperature | does not result in the generation of a significant amount of lactate | better substrate than glucose |

From patent publication US9186340B2, “Ischemia/reperfusion protection compositions and methods of using” (priority 2007, dated 2015)
